{
  "source": "paper PMC10221034",
  "about": "(2023)",
  "assay_in_all_cases": "far-Western, overlay or dot blot; rTpiA (200 ng) separated by SDS-PAGE and transferred onto PVDF; membrane blocked with 5% BSA in TBST, incubated 90 min with 30 µg/mL plasminogen at 25 °C; bound plasminogen probed with rabbit polyclonal anti-plasminogen and HRP secondary antibody; both purified",
  "key": {"[1]": {"biological_target": "T1, rTpiA K85A (Streptococcus pneumoniae D39) (UniProt Q04JH4)", "T1 sequence": "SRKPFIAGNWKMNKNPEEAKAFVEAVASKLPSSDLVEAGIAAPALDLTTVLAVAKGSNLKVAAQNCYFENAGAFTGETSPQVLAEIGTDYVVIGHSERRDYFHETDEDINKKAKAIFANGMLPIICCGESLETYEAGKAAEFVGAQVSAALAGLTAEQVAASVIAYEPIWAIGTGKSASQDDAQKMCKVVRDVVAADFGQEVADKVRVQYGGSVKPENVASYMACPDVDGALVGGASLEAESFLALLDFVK"}, "[2]": {"biological_target": "T2, site-specific amino acid-substituted rTpiA K252A (Streptococcus pneumoniae D39) (UniProt Q04JH4)", "T2 sequence": "T1 sequence with A84K, K251A"}, "[3]": {"biological_target": "T3, rTpiA K112A (Streptococcus pneumoniae D39) (UniProt Q04JH4)", "T3 sequence": "T1 sequence with A84K, K111A"}, "[4]": {"biological_target": "T4, rTpiA K56A (Streptococcus pneumoniae D39) (UniProt Q04JH4)", "T4 sequence": "T1 sequence with K55A, A84K"}, "[5]": {"biological_target": "T5, rTpiA K115A (Streptococcus pneumoniae D39) (UniProt Q04JH4)", "T5 sequence": "T1 sequence with A84K, K114A"}, "[6]": {"biological_target": "T6, rTpiA K186A (Streptococcus pneumoniae D39) (UniProt Q04JH4)", "T6 sequence": "T1 sequence with A84K, K185A"}, "[7]": {"biological_target": "T7, rTpiA K30A (Streptococcus pneumoniae D39) (UniProt Q04JH4)", "T7 sequence": "T1 sequence with K29A, A84K"}},
  "note": "Substitutions are numbered along the chain they refer to. No constants are given. Whether binding was seen depends on the method and setting. For some of these results: Binding calls can cover weak binding; strength is not graded here.",
  "data": [
    {"substance": "human plasma plasminogen", "values": [
      {"measurement": "binding", "setting": "[1]", "value": "binds"},
      {"measurement": "binding", "setting": "[2]", "value": "no binding (tested: 30 µg/mL plasminogen)"},
      {"measurement": "binding", "setting": "[3]", "value": "binds"},
      {"measurement": "binding", "setting": "[4]", "value": "binds"},
      {"measurement": "binding", "setting": "[5]", "value": "binds"},
      {"measurement": "binding", "setting": "[6]", "value": "binds"},
      {"measurement": "binding", "setting": "[7]", "value": "binds"}
    ]}
  ]
}
